Experimental data as given in PubChem BioAssay AID1671190 (National Center for Advancing Translational Sciences (NCATS), 2021).
Screen size: about 580,000 compounds; about 6,100 (1.1%) were called active. The shares of active, inactive and inconclusive entries below differ from those in the screen. Calls come from the whole dose curve; as a rule, active = well fitted inhibition curve with a large enough effect; inconclusive = small, poorly fitted or top-dose-only effect, or another doubt; inactive = no such curve, though single readings can be large or run the other way. Potencies of inconclusive entries are doubtful fits and often do not repeat.

Chains of the proteins cited; added tags and fusions are not shown. Lines headed by an entry give the natural chain unless they say otherwise; changes in a name come on top.
UniProt P18054: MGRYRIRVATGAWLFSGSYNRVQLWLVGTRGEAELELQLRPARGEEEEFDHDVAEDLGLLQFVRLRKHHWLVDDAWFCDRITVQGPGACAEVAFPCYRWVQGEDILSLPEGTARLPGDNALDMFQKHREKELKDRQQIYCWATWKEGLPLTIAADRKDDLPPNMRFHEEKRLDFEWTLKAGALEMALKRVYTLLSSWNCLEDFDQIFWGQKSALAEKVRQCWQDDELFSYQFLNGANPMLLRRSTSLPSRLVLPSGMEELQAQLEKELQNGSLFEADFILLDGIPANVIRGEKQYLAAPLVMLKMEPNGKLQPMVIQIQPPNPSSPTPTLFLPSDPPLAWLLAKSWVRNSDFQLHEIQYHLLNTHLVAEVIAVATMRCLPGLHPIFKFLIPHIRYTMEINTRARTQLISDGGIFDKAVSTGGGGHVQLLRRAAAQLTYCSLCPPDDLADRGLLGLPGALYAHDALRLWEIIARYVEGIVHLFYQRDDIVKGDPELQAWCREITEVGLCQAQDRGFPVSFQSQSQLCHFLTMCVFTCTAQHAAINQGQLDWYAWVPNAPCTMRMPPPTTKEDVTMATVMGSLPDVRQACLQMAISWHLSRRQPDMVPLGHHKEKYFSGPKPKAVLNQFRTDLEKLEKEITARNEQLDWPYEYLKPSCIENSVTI

Each compound was assayed against Polyunsaturated fatty acid lipoxygenase ALOX12 (Homo sapiens) (UniProt P18054) (assay: Primary qHTS assay for inhibitors of human arachidonate 12S-lipoxygenase (ALOX12): Round 2). Conditions: purified 12hLO, xylenol orange hydroperoxide absorbance; series mostly up to 108 µM.
Method in brief: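 Purified human 12hLO at 150 nM in 25 mM Hepes, 0.01% Triton X-100, pH 7.0, preincubated 15 min at room temperature with compound. Reaction started with 40 uM arachidonic acid, 30 min at room temperature. Hydroperoxide measured by Fe-xylenol orange, 573/405 nm absorbance ratio.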
Potency is the fitted concentration of half-maximal effect.

Row | SMILES | Potency
1 | COc1ccc(C(=O)N2CCCC(c3nc(-c4cc(OC)c(OC)c(OC)c4)no3)C2)cc1 (stereo unspecified) | inactive
2 | Cc1ccc(NC(=O)N/C=C/c2ccc(Cl)cc2)cc1 | inconclusive: 79.4 µM [inhibitor, partial curve, poor fit]
3 | Cc1ccc(-n2c(Cc3cccs3)nnc2SCC(N)=O)cc1 | inconclusive: 6.31 µM [inhibitor, full curve, poor fit]
4 | O=c1oc2ccccc2cc1S(=O)(=O)N1CCCCCC1 | inactive
5 | CCOC(=O)Cc1csc(NC(=O)c2ccncc2)n1 | inactive
6 | COC(=O)Cc1cn(-c2ncc(C(F)(F)F)cc2Cl)c2ccccc12 | inactive
7 | CCOC(=O)c1ccc(NC(=S)NCc2ccc(F)cc2)cc1 | inconclusive: 0.0891 µM [inhibitor, full curve, poor fit]
8 | Cc1ccc(C)c(OCc2cc(C(=O)N3CCN(c4ccccc4C)CC3C)no2)c1 (stereo unspecified) | inconclusive: 0.794 µM [inhibitor, full curve, poor fit]
9 | Cc1ccc(-c2c(C(N)=O)c(C)nc3sc4c(c23)CCC4)cc1 | inconclusive: 89.1 µM [inhibitor, partial curve, poor fit]
10 | Clc1ccc2nc(-c3ccc(Br)s3)cn2c1 | inconclusive: 4.47 µM [inhibitor, full curve, poor fit]
11 | CC(=O)Nc1ccc(Sc2ccc([N+](=O)[O-])o2)cc1 | inconclusive: 79.4 µM [inhibitor, partial curve, poor fit]
12 | O=C(NCc1ccc2c(c1)OCO2)c1ccc(COc2cccc(Cl)c2)o1 | inconclusive: 0.708 µM [inhibitor, full curve, poor fit]
13 | CC(=O)NCCCC(=O)N1CCC2(CC1)CN(C(=O)Cc1ccc(O)cc1)CCO2 | inconclusive: 2.82 µM [inhibitor, full curve, poor fit]
14 | O=C1OC2C3CC(C2Sc2ccc(Cl)cc2)C(C(=O)O)C13 (stereo unspecified) | inactive
15 | FC(F)(F)c1cccc(NC(=S)N2CCSC2c2ccc(Br)cc2)c1 (stereo unspecified) | inconclusive: 35.5 µM [inhibitor, partial curve, poor fit]
16 | Cn1cc(C2=C(c3c4n(c5ccccc35)CCC(CN)C4)C(=O)NC2=O)c2ccccc21 (stereo unspecified) | inconclusive: 12.2 µM [inhibitor, partial curve, poor fit]
17 | COc1cccc(CNC(=O)COC(=O)c2ccc(-c3ccc(O)cc3)cc2)c1 | inconclusive: 100 µM [inhibitor, partial curve, poor fit]
18 | Cc1cccc(-n2nc(C)c(C(=O)N(C)Cc3ccccc3)c2-n2cccc2)c1 | inconclusive: 100 µM [inhibitor, single point]
19 | COCC(=O)N[C@H](C)c1c(-c2ccc(F)cc2)noc1C(=O)O | inconclusive: 25.1 µM [inhibitor, full curve, poor fit]
20 | Cc1ccc(SCc2cn3c(C)csc3n2)cc1 | inconclusive: 5.62 µM [inhibitor, full curve, poor fit]
21 | Cc1cc(NS(=O)(=O)c2ccc(NC(=O)Cc3cccs3)cc2)no1 | inactive
22 | COc1ccccc1C(=O)Nc1ccc(OC(C)C(=O)N2CCOCC2)cc1 (stereo unspecified) | inconclusive: 35.5 µM [inhibitor, partial curve, poor fit]

Entries from the list above with a COOH group:
Row | SMILES | Potency
14 | O=C1OC2C3CC(C2Sc2ccc(Cl)cc2)C(C(=O)O)C13 (stereo unspecified) | inactive
19 | COCC(=O)N[C@H](C)c1c(-c2ccc(F)cc2)noc1C(=O)O | inconclusive: 25.1 µM [inhibitor, full curve, poor fit]

(more compounds)

Row | SMILES | Potency
23 | COC(=O)c1ccc(CNC(=O)C(C)Sc2ccccc2)cc1 (stereo unspecified) | inconclusive: 20 µM [inhibitor, single point]
24 | CC(=O)CSc1nc(C(F)(F)F)cc(=O)n1-c1ccccc1 | inconclusive: 50.1 µM [inhibitor, partial curve, poor fit]
25 | COc1ccc2nc(N3C(=O)C(O)=C(C(=O)c4ccco4)C3c3ccccc3OC)sc2c1 (stereo unspecified) | inconclusive: 39.8 µM [inhibitor, partial curve, poor fit]
26 | O=C(Nc1c(NCc2ccccc2)c2ccccc2oc1=O)c1ccccc1F | inactive
27 | Cc1ccccc1Cn1c(O)c(N=NC(=S)Nc2ccccc2F)c2ccccc21 | inactive
28 | NS(=O)(=O)c1ccc(NC(=O)CCn2c(=O)oc3ccccc32)cc1 | inconclusive: 20 µM [inhibitor, full curve, poor fit]
29 | O=C(OCN1C(=O)c2ccccc2C1=O)C1CCCCC1 | inconclusive: 158 µM [inhibitor, single point]
30 | C=CCOC(=O)C1=C(C)OC(N)=C(C#N)C1c1c(C)nn(-c2ccccc2)c1Cl (stereo unspecified) | inconclusive: 44.7 µM [inhibitor, partial curve, poor fit]
31 | O=C(/C=C/Nc1ccc(Oc2ccccc2)cc1)c1ccco1 | inactive
32 | CC(OC(=O)Cc1ccc(F)cc1)C(=O)NCc1ccc2c(c1)OCO2 (stereo unspecified) | inactive
33 | O=C(O)c1nc(-c2ccccc2)n(-c2ccc(Cl)cc2)n1 | inconclusive: 39.8 µM [inhibitor, partial curve, poor fit]
34 | CC(C)S(=O)(=O)C1=NSC2=NC(=O)/C(=C\c3ccc(-c4cccc(C(=O)O)c4)o3)C(=N)N21 | inconclusive: 39.8 µM [inhibitor, partial curve]
35 | O=C(CSc1n[nH]c(-c2cc(Br)ccc2O)n1)N1CCCCC1 | inactive
36 | O=C1CC(SCc2nc3ccccc3[nH]2)C(=O)N1c1cccc(F)c1 (stereo unspecified) | inactive
37 | O=C(c1ccco1)N1CC(F)(F)C[C@H]1c1nc(-c2ccncc2)no1 | inconclusive: 35.5 µM [inhibitor, full curve]
38 | Cc1noc(C)c1S(=O)(=O)Nc1ccccc1SCc1cc(=O)n2ccccc2n1 | inconclusive: 0.562 µM [inhibitor, full curve, poor fit]
39 | CC(C)(C)C1=Nn2c(nnc2-c2n[nH]c3c2CCC3)SC1 | inconclusive: 0.562 µM [inhibitor, partial curve, poor fit]
40 | COc1ccc(-c2cnc3n[nH]c(-c4ccc5c(c4)OCO5)c3n2)cc1 | inactive
41 | CCc1c(C)sc(NC(=O)c2c(F)c(F)c(F)c(F)c2F)c1C#N | inconclusive: 70.8 µM [inhibitor, partial curve, poor fit]
42 | Cc1cc(NC(=O)c2cc(-c3ccco3)on2)n(-c2ccccc2)n1 | inconclusive: 44.7 µM [inhibitor, partial curve, poor fit]
43 | CCCn1c(SCC(=O)Nc2nncs2)nnc1C1CC1 | inconclusive: 39.8 µM [inhibitor, partial curve, poor fit]
44 | COc1ccc(C(=O)OC(C)C(=O)NC2CCCc3ccccc32)cc1OC (stereo unspecified) | inactive

Row | SMILES | Potency
45 | COc1ccc(C2CC(=O)Oc3c(C(C)C)ccc(C)c32)cc1 (stereo unspecified) | inconclusive: 89.1 µM [inhibitor, single point]
46 | CCS(=O)(=O)N1CCC[C@H]2CN3CCc4cc(OC)ccc4[C@@H]3C[C@@H]21 | inconclusive: 39.8 µM [inhibitor, partial curve, poor fit]
47 | S=c1[nH]nc(Nc2ccc(Cl)cc2)s1 | inconclusive: 10 µM [inhibitor, partial curve, poor fit]
48 | Cc1ccnc2nc(C(=O)OCC(=O)N(CC(C)C)C3CCS(=O)(=O)C3)nn12 (stereo unspecified) | inconclusive: 31.6 µM [inhibitor, single point]
49 | C=CCSC1=C(C#N)C(c2ccccc2Cl)CC(=O)N1 (stereo unspecified) | inconclusive: 56.2 µM [inhibitor, partial curve, poor fit]
50 | CCc1nn(C(C)C(=O)NCc2ccc(Cl)cc2)c(=O)c2cc3occc3n12 (stereo unspecified) | inactive
51 | Cc1ccc(-c2nc(CN3CCCC3c3ccsc3)co2)cc1 (stereo unspecified) | inconclusive: 70.8 µM [inhibitor, single point]
52 | CC1(C(=O)Nc2ccc(Cl)c(Cl)c2)CCN1C(=O)CC(c1ccccc1)c1ccccc1 (stereo unspecified) | inconclusive: 5.62 µM [inhibitor, full curve, poor fit]
53 | Cc1ccc(-c2cccc(C(=O)NCCc3ccccc3)n2)c2ccccc12 | inactive
54 | FC(F)(F)c1ccccc1Cc1c(-c2ccccc2)nc2ccc(Br)cn12 | inconclusive: 100 µM [inhibitor, single point]
55 | CC(C)N1CCN(C2CCOC3(CCN(C(=O)Nc4ccccc4)CC3)C2)CC1 (stereo unspecified) | inactive
56 | COC(=O)c1c(NC(=O)c2cc3nc(-c4ccc(OC)cc4)cc(C(F)(F)F)n3n2)sc2c1CCCC2 | inconclusive: 141 µM [inhibitor, partial curve, poor fit]
57 | CCOc1ccc(-c2c(C(=O)N/N=C/c3ccc(C)o3)nnn2-c2nonc2N)cc1 | inactive
58 | Cc1ccc(S(=O)(=O)N2CCC(=O)N(C(COCc3ccccc3)C(C)C)CC2)cc1 (stereo unspecified) | inconclusive: 89.1 µM [inhibitor, partial curve, poor fit]
59 | Cc1nc2nc(NCc3ccc(Cl)cc3)[nH]n2c(=O)c1CCC(=O)Nc1cccc2ccccc12 | inactive
60 | O=C(NCCc1ccc(Cl)cc1)C1CN(c2cccc(Cl)c2)C(=O)N1 (stereo unspecified) | inconclusive: 31.6 µM [inhibitor, full curve]
61 | CC1CC(C)(C)CC2(C1)NC(=O)N(CC(=O)Nc1ccc(N3CCCCC3)cc1)C2=O (stereo unspecified) | inactive
62 | CCOC(=O)C1CCCN(C(=O)c2ccc3c(=O)n(CCOC)c(=S)[nH]c3c2)C1 (stereo unspecified) | inconclusive: 6.31 µM [inhibitor, partial curve]
63 | CCOc1ccccc1NCN1C(=O)c2ccccc2C1=O | inconclusive: 100 µM [inhibitor, partial curve, poor fit]
64 | Cc1ccc(-n2c(C3CCN(C(=O)Cc4ccccc4Cl)CC3)n[nH]c2=O)cc1 | inconclusive: 15.8 µM [inhibitor, full curve]
65 | COc1ccc(OCCC(=O)NCCN2CCOCC2)cc1 | inactive
66 | CC(=O)Nc1ccc(S(=O)(=O)Nc2ccc3n(c2=O)C[C@H]2C[C@@H]3CN(C(=O)NC3CCCCC3)C2)cc1 | inconclusive: 7.08 µM [inhibitor, full curve, poor fit]
